# At least one structure is not confirmed: it was looked up by name or label, or the drawing left a doubt.
# Biological target: T1, Escherichia coli acid phosphatase/phytase (appA) Mutant U (construct E2P2P3K2: C200N, D207N, S211N), SEQ. ID. No. 3, expressed in Pichia pastoris (Escherichia coli, UniProt P07102, C200N/D207N/S211N)
# T1 construct: The coding region starts at the codon 20 and ends at the codon 432; alpha-factor secretion leader of vector pPICZαA (own knowledge of the vector); made in house; host or cells: Pichia pastoris X33
# T1 sequence (P07102 20-432 C200N/D207N/S211N): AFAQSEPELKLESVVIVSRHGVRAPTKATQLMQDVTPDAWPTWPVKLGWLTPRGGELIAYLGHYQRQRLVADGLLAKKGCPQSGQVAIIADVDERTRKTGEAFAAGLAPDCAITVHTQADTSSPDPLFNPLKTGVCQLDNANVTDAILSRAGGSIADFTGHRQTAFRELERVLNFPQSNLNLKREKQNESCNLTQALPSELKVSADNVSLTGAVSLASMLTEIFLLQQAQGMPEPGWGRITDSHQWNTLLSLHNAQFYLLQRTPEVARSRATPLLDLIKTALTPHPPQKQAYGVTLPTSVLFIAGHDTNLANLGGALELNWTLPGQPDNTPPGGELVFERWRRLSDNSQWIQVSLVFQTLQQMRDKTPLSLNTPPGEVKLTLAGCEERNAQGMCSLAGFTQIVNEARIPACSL
# Assay: Enzyme kinetics of acid phosphatase/phytase (pNPP and sodium phytate as substrates)
# Format: biochemical
# Description: The expressed r-AppA and mutant enzymes in the medium supernatant were subjected to a two-step ammonium sulfate precipitation (25% and 75%) as previously described (Rodriguez, E. et al., Biochem. Biophys. Res. Commun. 257:117-23 (1999)). The suspension of the first round was centrifuged at 4°C, 25,000 x g for 20 min. The pellet of the second round was suspended in 10 ml and dialyzed overnight against 25 mM Tris-HCl, pH 7. After dialysis, the protein extract was loaded onto a DEAE (diethylaminoethyl)-Sepharose column (Sigma, St. Louis, MO) equilibrated with 25 mM Tris-HCl, pH 7. The bound protein was eluted with 1 M NaCl in 25 mM Tris-CH1, pH 7. […] Phytase activity was measured using sodium phytate as the substrate (Rodriguez, E. et al., Biochem. Biophys. Res. Commun. 257:117-23 (1999); Piddington, C.S. et al., Gene 133:55-62 (1993)). […] Free inorganic phosphorus was measured at 820 nm after 0.2 ml of the sample was mixed with 1.8 ml of H2O and 2 ml of a solution containing 0.6 M H2SO4, 2% ascorbic acid, and 0.5% ammonium molybdate, followed by incubation for 20 min at 50°C. […] The released p-nitrophenol was measured at 405 nm after 0.1 ml of the sample was mixed with 0.9 ml of 1 M NaOH and incubated for 10 min. […] After the samples were cooled on ice for 30 min, their remaining phytase activies were measured as described above. […]
compound,measurement,setting,value
"O=[N+]([O-])c1ccc(OP(=O)(O)O)cc1 [pNPP, p-nitrophenyl phosphate]",increase in apparent catalytic efficiency kcat/Km for pNPP than that of r-AppA,Mutant U versus r-AppA,1.9 fold
same,"Km value for pNPP reduced, versus r-AppA",Mutant U versus r-AppA (P < 0.05),one-half
